At least one structure is not confirmed: it was looked up by name or label, or the drawing left a doubt.
Tested on: Cosmos Bipinnatus plantlets
Assay: Kanamycin selection of plantlets on MS medium
Assay type: cell-based
Conditions: MS medium with 75 mg/l kanamycin

**Q.** What does the source list for `NC[C@H]1O[C@H](O[C@H]2[C@H](O)[C@@H](O[C@H]3O[C@H](CO)[C@@H](O)[C@H](N)[C@H]3O)[C@H](N)C[C@@H]2N)[C@H](O)[C@@H](O)[C@@H]1O` [kanamycin]?
**A.** Response of non-transgenic plants to kanamycin (non-transgenic plants): turned white; Response of transgenic plants to kanamycin (transgenic (nptII) plants): remained green and strong
